Data as given in PubChem BioAssay AID602196 (INSERM, 2012)

- Test: 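Knock-downs that protect lung cancer cells from cisplatin or sensitise them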
- Cell system: human A549 lung cancer cells
- Reagent: siRNA pair against human genes
- Timing: 48 h transfection before cisplatin; time from cisplatin to read-out not stated
- Conditions: cisplatin at a dose killing half of control-siRNA cells; exact dose and duration not given
- Read-out: 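Shift in cisplatin death relative to control siRNA, from -50 (all cells die) to +50 (no cells die); siRNAs harmful on their own scored 0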
- Reading the numbers: two-siRNA summed score (-2 to +2): higher = both siRNAs protect from cisplatin killing; -2 means both sensitise; mean protection from cisplatin (shift in death) and protection from cisplatin (shift in death), siRNA C and protection from cisplatin (shift in death), siRNA D: higher = protection from cisplatin killing
- Call rule: 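siRNAs harmful alone (LDH or WST-1) get 0; others get +1 for less and -1 for more cisplatin killing; genes are active when the two siRNAs give the same sign, summing to ±2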
- Meaning of the calls: active = both siRNAs shift cisplatin killing the same way; inactive = no consistent shift, or siRNA harmful alone
The deposit covers about 23,000 reagents; below is an unselected part. 455 of them (2%) count as active. 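Active includes both protection and sensitisation; some change values fall well beyond the stated -50 to +50 range.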 A number with no mark means an inactive call. The numbers tell different reagents against one gene apart. The record does not give: the amount of reagent.

| gene knocked down | reagent no. | two-siRNA summed score (-2 to +2) | mean protection from cisplatin (shift in death) (%) | protection from cisplatin (shift in death), siRNA C (%) | protection from cisplatin (shift in death), siRNA D (%) |
| --- | --- | --- | --- | --- | --- |
| HEXIM2 (HEXIM P-TEFb complex subunit 2) | 1 | 0 | 7.8 | 11.2 | 4.5 |
| ATP6V0A1 (ATPase H+ transporting V0 subunit a1) | 1 | 0 | -9.9 | 0.3 | -20.2 |
| DUX5 (double homeobox 5) | 1 | 0 | 27.5 | 42.5 | 12.5 |
| UCP2 (uncoupling protein 2) | 1 | 0 | -2.4 | -10.1 | 5.3 |
| B4GALT1 (beta-1,4-galactosyltransferase 1) | 1 | 1 | 1.6 | 8.1 | -5 |
| H1-5 (H1.5 linker histone, cluster member) | 1 | 1 | 13.8 | -7.5 | 35 |
| SIGLEC17P (sialic acid binding Ig like lectin 17, pseudogene) | 1 | 0 | 10.7 | -12.1 | 33.5 |
| C12orf57 (chromosome 12 open reading frame 57) | 1 | 0 | 1.9 | 5.8 | -2.1 |
| GBA2 (glucosylceramidase beta 2) | 1 | 0 | -7.5 | -9.6 | -5.4 |
| AGTRAP (angiotensin II receptor associated protein) | 1 | 0 | -1.5 | -6.9 | 3.9 |
| ST3GAL5 (ST3 beta-galactoside alpha-2,3-sialyltransferase 5) | 1 | 1 | 11.8 | 9.2 | 14.4 |
| MISO1 (mitochondrial inner membrane subdomain organizer 1) | 1 | 1 | 15.9 | 13.1 | 18.8 |
| HMGN2 (high mobility group nucleosomal binding domain 2) | 1 | 0 | -9.3 | -8.9 | -9.8 |
| NRAS (NRAS proto-oncogene, GTPase) | 1 | 0 | -2.5 | -5.7 | 0.7 |
| BPIFB1 (BPI fold containing family B member 1) | 1 | 1 | 26.4 | 32.8 | 20 |
| RFC5 (replication factor C subunit 5) | 1 | 0 | 5.5 | 2 | 9.1 |
| DMBX1 (diencephalon/mesencephalon homeobox 1) | 1 | 0 | 2 | 3.9 | 0 |
| COL19A1 (collagen type XIX alpha 1 chain) | 1 | 0 | 0.2 | 5.2 | -4.8 |
| CCR8 (C-C motif chemokine receptor 8) | 1 | -1 | -3.4 | 12.4 | -19.2 |
| GPR101 (G protein-coupled receptor 101) | 1 | 0 | 3.7 | -14.5 | 21.8 |
| LOC390613 | 1 | 0 | 5.9 | 13.6 | -1.9 |
| PCNA (proliferating cell nuclear antigen) | 1 | 0 | -9 | -20.8 | 2.8 |
| NUSAP1 (nucleolar and spindle associated protein 1) | 1 | 0 | 2.4 | -2.8 | 7.7 |
| PGAP2 (post-GPI attachment to proteins 2) | 1 | 0 | -6.1 | -9.4 | -2.9 |
| CAVIN3 (caveolae associated protein 3) | 1 | 1 | 16.8 | 9.2 | 24.4 |
| GOLGA6L5P (golgin A6 family like 5, pseudogene) | 1 | 1 | 5.7 | 16.1 | -4.7 |
| SIX1 (SIX homeobox 1) | 1 | 1 | 6.4 | -6.9 | 19.6 |
| SNRK (SNF related kinase) | 1 | 1 | 4.5 | -6.1 | 15.2 |
| TIGD2 (tigger transposable element derived 2) | 1 | 0 | 5 | -3.7 | 13.6 |
| LOC390146 | 1 | 0 | 6 | 17 | -5 |
| SDHAF4 (succinate dehydrogenase complex assembly factor 4) | 1 | -1 | -1.1 | 8.3 | -10.5 |

11 successive records already listed, quoted:
| gene knocked down | reagent no. | two-siRNA summed score (-2 to +2) | mean protection from cisplatin (shift in death) (%) | protection from cisplatin (shift in death), siRNA C (%) | protection from cisplatin (shift in death), siRNA D (%) |
| --- | --- | --- | --- | --- | --- |
| MISO1 (mitochondrial inner membrane subdomain organizer 1) | 1 | 1 | 15.9 | 13.1 | 18.8 |
| HMGN2 (high mobility group nucleosomal binding domain 2) | 1 | 0 | -9.3 | -8.9 | -9.8 |
| NRAS (NRAS proto-oncogene, GTPase) | 1 | 0 | -2.5 | -5.7 | 0.7 |
| BPIFB1 (BPI fold containing family B member 1) | 1 | 1 | 26.4 | 32.8 | 20 |
| RFC5 (replication factor C subunit 5) | 1 | 0 | 5.5 | 2 | 9.1 |
| DMBX1 (diencephalon/mesencephalon homeobox 1) | 1 | 0 | 2 | 3.9 | 0 |
| COL19A1 (collagen type XIX alpha 1 chain) | 1 | 0 | 0.2 | 5.2 | -4.8 |
| CCR8 (C-C motif chemokine receptor 8) | 1 | -1 | -3.4 | 12.4 | -19.2 |
| GPR101 (G protein-coupled receptor 101) | 1 | 0 | 3.7 | -14.5 | 21.8 |
| LOC390613 | 1 | 0 | 5.9 | 13.6 | -1.9 |
| PCNA (proliferating cell nuclear antigen) | 1 | 0 | -9 | -20.8 | 2.8 |

Next entries follow.
| gene knocked down | reagent no. | two-siRNA summed score (-2 to +2) | mean protection from cisplatin (shift in death) (%) | protection from cisplatin (shift in death), siRNA C (%) | protection from cisplatin (shift in death), siRNA D (%) |
| --- | --- | --- | --- | --- | --- |
| LOC286478 | 1 | 0 | 8 | 5.8 | 10.2 |
| MPV17L (MPV17 mitochondrial inner membrane protein like) | 1 | 0 | 12.2 | 11 | 13.4 |
| CLTRN (collectrin, amino acid transport regulator) | 1 | 0 | 8.7 | 12 | 5.4 |
| TNIP1 (TNFAIP3 interacting protein 1) | 1 | 0 | 18.3 | 0.9 | 35.8 |
| ELSPBP1 (epididymal sperm binding protein 1) | 1 | 0 | 8.5 | 8.5 | 8.5 |
| PLPPR1 (phospholipid phosphatase related 1) | 1 | 1 | 17.6 | 22.6 | 12.5 |
| SPMIP10 (sperm microtubule inner protein 10) | 1 | 0 | -2.3 | -3.2 | -1.4 |
| RASA2 (RAS p21 protein activator 2) | 1 | 0 | 4.6 | -2.4 | 11.6 |
| MPIG6B (megakaryocyte and platelet inhibitory receptor G6b) | 1 | 0 | -1.3 | -8.2 | 5.6 |
| CIBAR1 (CBY1 interacting BAR domain containing 1) | 1 | 0 | 4 | -2.3 | 10.2 |
| LOC136242 | 1 | 0 | -4.1 | -0.2 | -7.9 |
| TGFB2 (transforming growth factor beta 2) | 1 | 0 | -16.2 | -16 | -16.5 |
| SHANK2-AS3 (SHANK2 antisense RNA 3) | 1 | 1 | 13 | 23.1 | 2.9 |
| HPS6 (HPS6 biogenesis of lysosomal organelles complex 2 subunit 3) | 1 | 0 | 4.8 | -2.7 | 12.4 |
| LOC401016 | 1 | 0 | 2.8 | 6.6 | -1 |
| LINC02003 (long independently transcribed non-coding RNA 2003) | 1 | 0 | -6.1 | -4.9 | -7.4 |
| GYG2 (glycogenin 2) | 1 | 0 | 9.1 | 7.9 | 10.3 |
| ZNF630 (zinc finger protein 630) | 1 | 0 | -8.1 | -8.3 | -7.8 |
| BMPR2 (bone morphogenetic protein receptor type 2) | 1 | -1 | -8.3 | -3.4 | -13.1 |
| MMP25 (matrix metallopeptidase 25) | 1 | -2 (active) | -27.3 | -19.5 | -35.1 |
| MMP25 (matrix metallopeptidase 25) | 2 | 0 | 3.2 | -3.1 | 9.4 |
| LOC196415 | 1 | 0 | 2.5 | 3 | 2.1 |
| SAMD8 (sterile alpha motif domain containing 8) | 1 | 0 | 8.6 | 7 | 10.3 |
| RAVER1 (ribonucleoprotein, PTB binding 1) | 1 | 1 | 8.1 | 14.3 | 2 |
| PRSS21 (serine protease 21) | 1 | -1 | -33.3 | -24.4 | -42.2 |
| CCL20 (C-C motif chemokine ligand 20) | 1 | 0 | 3.1 | 5 | 1.3 |
| SYF2 (SYF2 pre-mRNA splicing factor) | 1 | 0 | -5.2 | -12.3 | 1.9 |
| OSBPL7 (oxysterol binding protein like 7) | 1 | -1 | 0.3 | -11.1 | 11.6 |
| MAG (myelin associated glycoprotein) | 1 | 0 | 2.1 | 0.3 | 3.9 |
| CYP3A7 (cytochrome P450 family 3 subfamily A member 7) | 1 | 0 | 2 | 11.5 | -7.6 |
| USP25 (ubiquitin specific peptidase 25) | 1 | 0 | 2 | 0 | 3.9 |
| ZNF230 (zinc finger protein 230) | 1 | 1 | 5.6 | -4.5 | 15.8 |
| SIAE (sialic acid acetylesterase) | 1 | 0 | -6.2 | -3.4 | -9 |
| DDX47 (DEAD-box helicase 47) | 1 | -1 | -4.2 | 6.7 | -15 |
| SPOPL (speckle type BTB/POZ protein like) | 1 | 0 | 3.6 | -1.6 | 8.7 |
| MAP3K7CL (MAP3K7 C-terminal like) | 1 | 1 | 1.3 | 15.6 | -13 |
| INPP5E (inositol polyphosphate-5-phosphatase E) | 1 | 0 | 1.2 | -5.9 | 8.3 |
| NUTM2D (NUT family member 2D) | 1 | 0 | 1.4 | 12.8 | -9.9 |
| IRF6 (interferon regulatory factor 6) | 1 | 0 | 7.4 | 16.6 | -1.8 |
| MATN1 (matrilin 1) | 1 | 0 | 2.1 | -0.4 | 4.6 |
| ASCC2 (activating signal cointegrator 1 complex subunit 2) | 1 | 0 | -3.6 | -7.1 | 0 |
| HOMER1 (homer scaffold protein 1) | 1 | -1 | -10.5 | -24.3 | 3.2 |
